Data on one molecule can be found in article PMC8348901, “Novel N-Substituted 3-Aryl-4-(diethoxyphosphoryl)azetidin-2-ones as Antibiotic Enhancers and Antiviral Agents in Search for a Successful Treatment of Complex Infections” (International Journal of Molecular Sciences, 2021).

The assay has as its system Capan-1 (pancreatic adenocarcinoma). The assay is described as follows: Cytostatic activity (cell proliferation). The assay is classed as cell-based. As for the experimental part:
The 50% cytostatic inhibitory concentration (IC50) causing a 50% decrease in cell proliferation was determined for all obtained compounds toward 9 cancerous cell lines, i.e.,: Capan-1 (pancreatic adenocarcinoma), Hap1 (chronic myeloid leukemia), HCT-116 (colorectal carcinoma), NCI-H460 (lung carcinoma), DND-41 (acute lymphoblastic leukemia), HL-60 (acute myeloid leukemia), K-562 (chronic myeloid leukemia), MM.1S (multiple myeloma), Z-138 non-Hodgkin lymphoma), as well as normal retina (non-cancerous) cells (hTERT RPE-1). Docetaxel, etoposide and stauroporine were used as the reference compounds.
All assays were performed in 96-well microtiter plates. To each well was added (5–7.5) × 10^4 tumor cells and a given amount of the tested compound. The cells were allowed to proliferate at 37 °C in a humidified, CO2-controlled atmosphere. At the end of the incubation period, the cells were counted in a Coulter counter. The IC50 (50% inhibitory concentration) was defined as the concentration of the compound that inhibited cell proliferation by 50%.

SMILES strings stand for the structures.

For the molecule `CN[C@@H]1C[C@H]2O[C@@](C)([C@@H]1OC)n1c3ccccc3c3c4c(c5c6ccccc6n2c5c31)C(=O)NC4` [Stauroporine, reference compound], half-maximal inhibition (IC50) required 660 nM.
